Source: the supplement of paper PMC7125110
± gives the standard error. The uncertainty is large for many entries.

B1: glmS ribozyme (parent)
chain: AUAAAAGCGCCAGAACUACAGAAAUGUAGUUGACGAGGAGGAGGUUUAUCGAAUUUUCGGCGGAUGCCUCCAAA

Variants of: B1
Assay: self-cleavage kobs at 640 uM GlcN6P; higher = faster cleavage; RNA array
Conditions: with glucosamine-6-phosphate
Method in brief: (§1)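 Tiles of sequenced MiSeq chips were imaged over ~14 h at 37 °C. On them, barcoded ribozyme variants had been transcribed in situ by E. coli RNA polymerase and were tracked via a hybridised Cy3 probe while glucosamine-6-phosphate (40 μM to 10 mM) in HEPES/KCl/Mg(OAc)2 buffer flowed in. Per-tile medians, normalised to baseline and to non-cleaving reference variants, were fit to one- or two-exponential decays for kobs, and weighted Michaelis–Menten fits gave kcat and KM.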

Row | Variant | self-cleavage kobs at 640 uM GlcN6P
1 | C58G G66C C67G C70U | 2.68e-05 ± 2.3e-05 s⁻¹
2 | G59U C67U C68U U69C | 4.48e-05 ± 2.3e-05 s⁻¹
3 | A33G G59U C68A C71A | 2.55e-05 ± 2.4e-05 s⁻¹
4 | G59A U69G | 2.58e-05 ± 1.3e-05 s⁻¹
5 | G44C U47A | 3.32e-05 ± 1.9e-05 s⁻¹
6 | C16U G37U C58U C61A U69G | 2.78e-05 ± 2.7e-05 s⁻¹
7 | G29C U49G C70G | 2.58e-05 ± 2.3e-05 s⁻¹
8 | A52G C68G U69C | 6.26e-05 ± 3.3e-05 s⁻¹
9 | U46G C61G C67A | 5.57e-05 ± 3.1e-05 s⁻¹
10 | U69A C71A | 2.5e-05 ± 1.5e-05 s⁻¹
11 | G37U A39G C50G | 3.83e-05 ± 2.8e-05 s⁻¹
12 | C16U G37C | 1.87e-05 ± 1.8e-05 s⁻¹
13 | C34U C50G C67A | 2.93e-05 ± 2.3e-05 s⁻¹
14 | U54C C58G C61G C68G U69G C71G | 3.94e-05 ± 2.4e-05 s⁻¹
15 | A48G C58U G59U C61G C67U | 6.08e-05 ± 3.2e-05 s⁻¹
16 | A52C U54C | 2.04e-05 ± 1.9e-05 s⁻¹
17 | C16U G29C C50G | 3.84e-05 ± 2.4e-05 s⁻¹
18 | C16G C50A U57C C68U C71G | 4.32e-05 ± 2.6e-05 s⁻¹
19 | U57C C70A | 3e-05 ± 1.7e-05 s⁻¹
20 | A33G U69A | 0.000329 ± 0.0003 s⁻¹
21 | G29U C61A C67U | 2.87e-05 ± 2.2e-05 s⁻¹
22 | A52U U55C A64G | 3.14e-05 ± 1.7e-05 s⁻¹
23 | A64G U69G C71A | 3.78e-05 ± 3.1e-05 s⁻¹
24 | G62A U69A | 2.77e-05 ± 1.7e-05 s⁻¹

Row | Variant | self-cleavage kobs at 640 uM GlcN6P
25 | U69A C70G | 3.38e-05 ± 1.8e-05 s⁻¹
26 | G37A A53U G66U | 3.33e-05 ± 1.7e-05 s⁻¹
27 | A36U C68A | 0.000548 ± 0.00028 s⁻¹
28 | U31A A39U C70G | 3.05e-05 ± 2.1e-05 s⁻¹
29 | G37C C50G U54G G63U A64U | 4.83e-05 ± 3.4e-05 s⁻¹
30 | G32U A53C U55A | 1.96e-05 ± 1.3e-05 s⁻¹
31 | U31G C68G | 2.44e-05 ± 1.4e-05 s⁻¹
32 | G29A C58U G60A C70A | 2.56e-05 ± 2e-05 s⁻¹
33 | U31G G32A U56G | 5.7e-05 ± 3e-05 s⁻¹
34 | G29U U54G C61A | 2.13e-05 ± 2.1e-05 s⁻¹
35 | U55C G59A | 2.25e-05 ± 1.7e-05 s⁻¹
36 | C68U U69G | 2.65e-05 ± 1.6e-05 s⁻¹
37 | U56C U57G | 2.5e-05 ± 2.2e-05 s⁻¹
38 | A64U C71G | 1.88e-05 ± 1.6e-05 s⁻¹
39 | U45A U54G C68G | 4.74e-05 ± 2.9e-05 s⁻¹
40 | G51A C70G | 3.54e-05 ± 2e-05 s⁻¹
41 | C16A U69A | 3.29e-05 ± 1.8e-05 s⁻¹
42 | G51U A53U C67U | 0.00014 ± 8.3e-05 s⁻¹
43 | A42U C71G | 2.13e-05 ± 2.1e-05 s⁻¹
44 | A33U C71A | 1.89e-05 ± 1.2e-05 s⁻¹
45 | C50G U55C | 2.14e-05 ± 1.8e-05 s⁻¹
46 | A33G C34U C68U | 2.88e-05 ± 2.2e-05 s⁻¹
47 | U30A C67G C71G | 3.31e-05 ± 2.1e-05 s⁻¹
48 | C34G C67G | 0.000674 ± 0.00055 s⁻¹

Variants of: B1
Assay: self-cleavage kobs at 160 uM GlcN6P; higher = faster cleavage; RNA array
Conditions: with glucosamine-6-phosphate
Method in brief: as §1

Row | Variant | self-cleavage kobs at 160 uM GlcN6P
49 | C11A G59A C61G C70A | 2.52e-05 ± 2.2e-05 s⁻¹
50 | G13U C71A | 2.35e-05 ± 1.3e-05 s⁻¹
51 | A33G G59U C68A C71A | 2.48e-05 ± 2.3e-05 s⁻¹
52 | A14C C68G | 2.53e-05 ± 2.2e-05 s⁻¹
53 | A14U C68G | 1.84e-05 ± 1.8e-05 s⁻¹
54 | G13A C58G | 2.44e-05 ± 1.5e-05 s⁻¹
55 | A6G U54G | 4.08e-05 ± 2.2e-05 s⁻¹
56 | C10U A14U C16U C68G | 6.74e-05 ± 3.9e-05 s⁻¹
57 | A12G G37U C70G C71G | 2.87e-05 ± 2.3e-05 s⁻¹
58 | G29U C61A C67U | 3.18e-05 ± 2.3e-05 s⁻¹
59 | C11U U30A C34U A36G U69A | 3.87e-05 ± 2e-05 s⁻¹
60 | A14C U65A | 2.67e-05 ± 1.7e-05 s⁻¹
61 | C16A C70G | 2.74e-05 ± 1.7e-05 s⁻¹
62 | G29A C58G | 1.78e-05 ± 1.7e-05 s⁻¹
63 | C16U G63U C70G | 3.73e-05 ± 2.5e-05 s⁻¹
64 | C11U C61G C67A | 3.66e-05 ± 2.4e-05 s⁻¹
65 | C11A G59A | 2.85e-05 ± 1.7e-05 s⁻¹
66 | C10U C50G G63U | 2.59e-05 ± 1.5e-05 s⁻¹
67 | A12C U69A | 3.65e-05 ± 2.4e-05 s⁻¹
68 | C11A G38U C67G C68U | 0.000391 ± 0.0002 s⁻¹
69 | G51A C70G | 3.47e-05 ± 2e-05 s⁻¹
70 | C10U C11A C70A | 3.42e-05 ± 2.1e-05 s⁻¹
71 | C50G U55C | 2.91e-05 ± 2.5e-05 s⁻¹
72 | A6C A12U | 1.44e-05 ± 1.2e-05 s⁻¹
73 | A15C A48U G51U U57C U69G | 4.08e-05 ± 3.2e-05 s⁻¹
74 | C11A A48U U54A U57C G62A | 0.00226 ± 0.0019 s⁻¹
75 | A14U U30C C70G | 4.29e-05 ± 2.6e-05 s⁻¹

4 entries from above in a different format:
A14U C68G
  self-cleavage kobs at 160 uM GlcN6P: 1.84e-05 ± 1.8e-05 s⁻¹
C16A C70G
  self-cleavage kobs at 160 uM GlcN6P: 2.74e-05 ± 1.7e-05 s⁻¹
C16U G63U C70G
  self-cleavage kobs at 160 uM GlcN6P: 3.73e-05 ± 2.5e-05 s⁻¹
G51A C70G
  self-cleavage kobs at 160 uM GlcN6P: 3.47e-05 ± 2e-05 s⁻¹

Variants of: B1
Assay: self-cleavage kobs at 2500 uM GlcN6P; higher = faster cleavage; RNA array
Conditions: with glucosamine-6-phosphate
Method in brief: as §1

Row | Variant | self-cleavage kobs at 2500 uM GlcN6P
76 | G59A U69G | 2.7e-05 ± 1.6e-05 s⁻¹
77 | A14C C68G | 1.68e-05 ± 1.4e-05 s⁻¹
78 | G29C U49G C70G | 2.55e-05 ± 2.5e-05 s⁻¹
79 | A52G C68G U69C | 0.000126 ± 6.7e-05 s⁻¹
80 | U69A C71A | 2.58e-05 ± 1.4e-05 s⁻¹
81 | C16U G37C | 1.12e-05 ± 1.1e-05 s⁻¹
82 | A52C U54C | 2.88e-05 ± 2e-05 s⁻¹
83 | A33G U69A | 2.27e-05 ± 2.3e-05 s⁻¹
84 | G29U C61A C67U | 4.22e-05 ± 2.7e-05 s⁻¹
85 | C11U U30A C34U A36G U69A | 4.79e-05 ± 2.5e-05 s⁻¹
86 | G62A U69A | 3.99e-05 ± 2.3e-05 s⁻¹
87 | G29A C58G | 1.24e-05 ± 1.1e-05 s⁻¹
88 | C10U C50G G63U | 3.5e-05 ± 3e-05 s⁻¹
89 | A64U C71G | 2.15e-05 ± 1.4e-05 s⁻¹
90 | G51A C70G | 3.64e-05 ± 2.3e-05 s⁻¹

Variants of: B1
Assay: self-cleavage kobs at 10000 uM GlcN6P; higher = faster cleavage; RNA array
Conditions: with glucosamine-6-phosphate
Method in brief: as §1

Row | Variant | self-cleavage kobs at 10000 uM GlcN6P
91 | G59A U69G | 1.32e-05 ± 9.9e-06 s⁻¹
92 | A14U C68G | 1.43e-05 ± 1.3e-05 s⁻¹
93 | G37C C50G U54G G63U A64U | 3.82e-05 ± 2e-05 s⁻¹
94 | C68U U69G | 1.65e-05 ± 1.1e-05 s⁻¹
95 | A64U C71G | 1.79e-05 ± 1.1e-05 s⁻¹
96 | C50G U55C | 1.96e-05 ± 1.5e-05 s⁻¹
